Source: patent publication US11565998B2, “Succinate prodrug, compositions containing the succinate prodrug and uses thereof” (ABLIVA AB, priority 2019, dated 2023)
Entries after “also recorded” stand apart in the source; their conditions may differ. At least one structure is not confirmed: it was looked up by name or label, or the drawing left a doubt.

Key:
[1] = tested on: rotenone induced rat Parkinson disease model; assay: Rat model of rotenone induced motor dysfunction and lactic acidosis; type: in vivo; conditions: rotenone injected Lewis rats, 0.75 mg/mL in drinking water, day 4, vs water
[2] = Aqueous formulations of Compound 1 (water, PBS, saline), concentration by HPLC; type: physicochemical; conditions: for Calc.: batch 11
Procedure: Formulation Protocol • 1. Weigh out the required amount of Compound 1 then add the required amount of excipient (0.9% w/v saline, 100 mM PBS pH 7.4, water) to the solid Compound 1 to give the required mg/ml concentration of Compound 1. For example, for a 400 mg/ml formulation of Compound 1 in water, weigh out 400 mg of Compound 1 and add 0.7 ml of water. • 2. Sonicate the solution for 10 mins and then shake for 20 mins to ensure that Compound 1 is fully dissolved. • 3. The solution can be centrifuged (13000 rpm, 10 mins) to remove any particulates if required. • 4. The solution can be sterile filtered if required.
˜500 mg of compound was weighed into a vial, ˜500 μl 100 mM PBS pH 7.4 added and the vial was sonicated for 10 mins then shaken for 20 mins. A sample was then removed, diluted 1/2000 and the concentration calculated by HPLC analysis.
Compound 1 batch 3 was heated in an oven to 60° C. for 20 mins, at which point it became a translucent pale-yellow liquid. 100 mM PBS pH 7.4 (20% v/v) was added and the solution was mixed for 20 mins on a shaker. […] The solution was placed at 4° C. for 72 hours.
Method: • 1. Saline (0.9% w/v) was added to Compound 1 batch 11 in different amounts then sonicated for 10 mins—the samples remained slightly cloudy • 2. The samples were shaken for 30 mins at which point the solutions became translucent • 3. The solutions were diluted for HPLC analysis

[3] = Intravenous infusion in anaesthetised pigs: succinate, fumarate, blood lactate; type: in vivo, Yorkshire landrace hybrid pigs; conditions: pig
[4] = Gel formulation (HydroGel): concentration and stability by HPLC; type: physicochemical
Ndufs4 KO mice = assay: Mouse genetic Ndufs4 knock-out model of complex 1 dysfunction; type: in vivo, C57BL/6 mice; conditions: 1 mg/mL in drinking water from weaning (day 21)
[5] = Freeze/thaw stability in saline; type: physicochemical; conditions: 1 mg/ml in saline
RT stability in saline = type: physicochemical; conditions: 1 mg/ml in saline (0.9% w/v)
[6] = tested on: rotenone-mediated inhibition of complex 1; assay: Pig model of rotenone induced mitochondrial complex 1 dysfunction; type: in vivo, Yorkshire landrace hybrid pigs; conditions: rotenone 7.1 mg/hr for 1.5 hours + Compound 1 2 mg/kg/min for 2.5 hours
Procedure: To study the effect of rotenone-mediated inhibition of complex 1, Yorkshire landrace hybrid pigs were anaesthetised and implanted with venous catheters for simultaneous infusion of rotenone and Compound 1 or vehicle (PBS). Rotenone (7.1 mg/hr) was infused during 1.5 hours. Compound 1 was infused at a constant rate of 2 mg/kg/min over a period of 2.5 hours. The control animal was infused with PBS. Blood samples were taken with 30 min intervals and plasma was separated by centrifugation. Microdialysates were collected by inserting a microdialysis probe into the striatum of the brain and analysed for lactate using an ISCUS instrument (MDialysis). At the end of infusion, the animal was euthanised and terminal blood and organ samples were collected. Plasma and tissue samples were stored frozen and later analysed for succinate in an LC/MS method using a Thermo Vanquish UPLC+Thermo Quantis triple quadrupole MS instrument, an Acquity UPLC HSS C18 (100×2.1 mm, 1.8 μm) column with guard filter and gradient elution; A=0.1% Formic acid, B=Acetonitrile. [13C]-labelled succinate was used as internal standard. Lactate data were expressed as percentage of the baseline value obtained before start of rotenone infusion.

[7] = gel 2.25 mg/ml, RT (approx. 20° C.), day 0
[8] = gel 2.25 mg/ml, RT (approx. 20° C.), day 1
[9] = gel 2.25 mg/ml, RT (approx. 20° C.), day 5
[10] = gel 2.25 mg/ml, RT (approx. 20° C.), day 7
[11] = gel 2.25 mg/ml, RT (approx. 20° C.), day 11
[12] = gel 2.25 mg/ml, RT (approx. 20° C.), day 14
[13] = gel 2.25 mg/ml, RT (approx. 20° C.), day 20

## COC(=O)CCC(=O)SCCNC(C)=O [Compound 1, Methyl 3-[(2-acetylaminoethylthio)carbonyl]propionate]
[1]
  postural instability (displacement distance): significant increase
  rearings: significant increase in rearings
[2]; 400 mg in 0.4 ml saline (0.9% w/v)
  Calc.: 545 mg/mL
[2]; 400 mg in 0.7 ml saline (0.9% w/v)
  Calc.: 403 mg/mL
[2]; 400 mg in 1 ml saline (0.9% w/v)
  Calc.: 261 mg/mL
[2]; 0.9% w/v saline, 100 mM PBS pH 7.4 or water
  amount that can be formulated in aqueous solutions: no reachable limit
[3]; % of initial value, three animals
  blood lactate: decreased relative to initial values
[3]; vs vehicle (PBS) animal, retina, brain, heart
  fumarate in tissues at end of study: higher in tissues of the animal receiving Compound 1 than in the vehicle animal
[4]; 2 ml water stock added to 1 ml food dye
  AUC of water stock diluted with food dye relative to water stock before dilution: 0.63 times
[4]; gel 2.25 mg/ml, 4° C., day 0
  AUC (% of T = 0): 100.0%
  Calc.: 2.071 mg/mL
  Purity at 230 nm: 99.4%
[4]; gel 2.25 mg/ml, 4° C., day 1
  AUC (% of T = 0): 97.8%
  Calc.: 2.024 mg/mL
  Purity at 230 nm: 99.4%
[4]; gel 2.25 mg/ml, 4° C., day 5
  AUC (% of T = 0): 93.5%
  Calc.: 1.937 mg/mL
  Purity at 230 nm: 99.4%
[4]; gel 2.25 mg/ml, 4° C., day 7
  AUC (% of T = 0): 95.6%
  Calc.: 1.979 mg/mL
  Purity at 230 nm: 99.4%
[4]; gel 2.25 mg/ml, 4° C., day 11
  AUC (% of T = 0): 96.9%
  Calc.: 2.007 mg/mL
  Purity at 230 nm: 99.4%
[4]; gel 2.25 mg/ml, 4° C., day 14
  AUC (% of T = 0): 104.7%
  Calc.: 2.167 mg/mL
  Purity at 230 nm: 99.4%
[4]; gel 2.25 mg/ml, 4° C., day 20
  AUC (% of T = 0): 107.1%
  Calc.: 2.218 mg/mL
  Purity at 230 nm: 99.5%
[4]; [7]
  AUC (% of T = 0): 100.0%
  Calc.: 2.034 mg/mL
  Purity at 230 nm: 99.5%
[4]; [8]
  AUC (% of T = 0): 85.8%
  Calc.: 1.746 mg/mL
  Purity at 230 nm: 99.5%
[4]; [9]
  AUC (% of T = 0): 100.9%
  Calc.: 2.053 mg/mL
  Purity at 230 nm: 99.4%
[4]; [10]
  AUC (% of T = 0): 84.6%
  Calc.: 1.721 mg/mL
  Purity at 230 nm: 99.2%
[4]; [11]
  AUC (% of T = 0): 92.9%
  Calc.: 1.889 mg/mL
  Purity at 230 nm: 99.1%
[4]; [12]
  AUC (% of T = 0): 134.6%
  Calc.: 2.739 mg/mL
  Purity at 230 nm: 99.4%
[4]; [13]
  AUC (% of T = 0): 111.7%
  Calc.: 2.273 mg/mL
  Purity at 230 nm: 99.4%
[4]; gel formulation, expected 2.25 mg/ml, test of protocol (Table 13)
  Calc.: 2.355 mg/mL
[4]; gel sample 4° C., expected 2.25 mg/ml (Table 10)
  Calc.: 2.07 mg/mL
[4]; gel sample 37° C., expected 2.25 mg/ml (Table 10)
  Calc.: 2.03 mg/mL
[4]; water stock for addition into gel, expected 225 mg/ml (Table 9)
  Calc.: 222.749 mg/mL
[4]; water stock, expected 225 mg/ml, test of protocol (Table 13)
  Calc.: 229.496 mg/mL
Ndufs4 KO mice
  survival: trend of prolonged survival; also recorded: increased the survival rate (p=0.0697)
Ndufs4 KO mice; first 10 days
  body weight gain: transiently increased body weight; also recorded: increased weigh gain (p<0.05)
[5]; FT cycle 0
  Calc.: 1.157 mg/mL
  Purity: 98.9%
[5]; FT cycle 1
  Calc.: 1.148 mg/mL
  Purity: 98.8%
[5]; FT cycle 2
  Calc.: 1.153 mg/mL
  Purity: 98.9%
[5]; FT cycle 3
  Calc.: 1.146 mg/mL
  Purity: 98.8%
[5]; frozen at −80° C. overnight
  number of freeze/thaw cycles stable: at least 3 freeze/thaw cycles
RT stability in saline
  time stable at room temperature: at least 14 days
[6]
  brain lactate (striatum microdialysate): counteracted a rotenone induced increase in brain lactate
